In this assay the target is CLL receptor reconstituted in RAMOS cells (own BCR deleted by CRISPR). In words: FACS on RAMOS cells reconstituted with the CLL receptor.

These are yes or no findings as the source states them, for the method shown.

B1: AVA-mAb01 (antibody, V domains shown)
VH: QVQLQQSGPGLVQPSQSLSITCTVSGFSLTSYGIHWVRQSPGKGLEWLGVIWRGGGTDSNAAFMSRLSITKDNSKSQVFFKMNSLQADDTAIYYCARSRYDEEESMNYWGQGTSVTVSS
VL: QIVLTQSPASLSASVGETVTITCRASGNIHSYLAWYQQKQGKSPQLLVYNAKTLADGVPSRFSGSGSGTQYSLKINSLQPEDFGSYYCQHFWNTPPTFGAGTKLELK
Take B1: the binding entry is “no binding”.

The record behind these values is patent publication US20200199225A1.
